# In PubChem BioAssay AID248 (DTP/NCI, 2004):
# The list does not hold the whole screen: it gathers tests that were run many times, whatever their T/C, doses with no T/C, and many T/C values between a quarter and a half above the control. Other doses and runs of a compound stand elsewhere. T/C: endpoint of the treated group in % of that of the vehicle group. Some entries give survivors of the animals treated and no T/C: the source holds a T/C of zero for them, seemingly a mark for toxic or unscored doses. Some survivor counts are full or nearly so, which does not show that the dose was tolerated: survival well below the control is almost never listed, so the zero probably covers shortened survival too. Counts of survivors are from the toxicity check (mostly the fifth day) where no day follows; animals may have died later. Schedule codes are those of the source, taken here to give the interval after Q, in days (D) or hours (H), and the number of doses after X. Some entries were tested several times; the values are given in rising order. Some schedule codes hold Z or #, which are not explained here. Some molecules as drawn cover several salts, stereoisomers or complexes of the source; a dose is that of the sample tested. Where survival is the endpoint, this PubChem deposit counts one and a half times the control or more as active, and values a quarter to a half above the control carry no call in these data; other NCI protocols may use other cut-offs. Marks such as (2×) stand for listed records that agree. Some T/C values carry the count of animals alive at the toxicity check (mostly the fifth day); where none is given, no animal had died by that day.
# System: L1210 leukemia ip in BDF1 mice, survival T/C
# Experiment: NCI In Vivo Anticancer Drug Screen. Data for tumor model L1210 Leukemia (intraperitoneal) in B6D2F1 (BDF1) mice
# Settings: T/C endpoint: mean survival time, higher T/C = longer survival
# [1] = dose: 100.0 mg/kg/injection, schedule: Q04DX002 (ip), vehicle: Klucel (hydroxypropylcellulose) (HPC)
# [2] = dose: 200.0 mg/kg/injection, schedule: Q04DX002 (ip), vehicle: Klucel (hydroxypropylcellulose) (HPC)
# [3] = dose: 400.0 mg/kg/injection, schedule: Q04DX002 (ip), vehicle: Klucel (hydroxypropylcellulose) (HPC)
# [4] = dose: 400.0 mg/kg/injection, schedule: Q04DX002 (ip), vehicle: saline with Tween-80
# [5] = dose: 200.0 mg/kg/injection, schedule: Q04DX003 (ip), vehicle: saline with Tween-80
# [6] = dose: 200.0 mg/kg/injection, schedule: Q04DX003 (ip), vehicle: saline
# [7] = dose: 400.0 mg/kg/injection, schedule: Q04DX003 (ip), vehicle: saline
# [8] = dose: 150.0 mg/kg/injection, schedule: Q01DX001 (ip), vehicle: other
# [9] = dose: 300.0 mg/kg/injection, schedule: Q01DX001 (ip), vehicle: other
# [10] = dose: 150.0 mg/kg/injection, schedule: Q01DX001 (ip), vehicle: saline
# [11] = dose: 300.0 mg/kg/injection, schedule: Q01DX001 (ip), vehicle: saline
smiles,measurement,setting,value
NC(CSS(=O)(=O)O)=NC1CC2CCC1C2 (stereo not drawn),T/C,"dose: 25.0 mg/kg/injection, schedule: Q04DX002 (ip), vehicle: saline","87, 96, 100, 115 % of control"
same,survivor count,"dose: 50.0 mg/kg/injection, schedule: Q01DX001 (ip), vehicle: saline with Tween-80",3 of 6
same,survivor count,"dose: 50.0 mg/kg/injection, schedule: Q04DX002 (ip), vehicle: Klucel (hydroxypropylcellulose) (HPC)",1 of 3
same,survivor count,"dose: 50.0 mg/kg/injection, schedule: Q04DX002 (ip), vehicle: saline",1 of 6
same,survivor count,"dose: 100.0 mg/kg/injection, schedule: Q01DX001 (ip), vehicle: saline with Tween-80",1 of 6
same,survivor count,[1],1 of 3
same,survivor count,"dose: 100.0 mg/kg/injection, schedule: Q04DX002 (ip), vehicle: saline with Tween-80",0 of 3 and 0 of 6
same,survivor count,"dose: 100.0 mg/kg/injection, schedule: Q04DX002 (ip), vehicle: saline",0 of 3 and 0 of 6
same,survivor count,[2],1 of 3
same,survivor count,"dose: 200.0 mg/kg/injection, schedule: Q04DX002 (ip), vehicle: saline with Tween-80",0 of 3 and 0 of 6
same,survivor count,[3],0 of 3
same,survivor count,[4],0 of 3 and 0 of 6
CCSC(SCC)C(OC(C)=O)C(OC(C)=O)C(OC(C)=O)C(COC(c1ccccc1)(c1ccccc1)c1ccccc1)OC(C)=O (stereo not drawn),survivor count,[4],3 of 3
CC(=O)N=c1ccccn1O,survivor count,"dose: 400.0 mg/kg/injection, schedule: Q04DX002 (ip), vehicle: saline",3 of 3
CNc1ncnc2c1ccn2C1OC(CO)C(O)C1O (stereo not drawn),survivor count,"dose: 100.0 mg/kg/injection, schedule: Q01DX001 (ip), vehicle: carboxymethylcellulose (CMC)",1 of 4
same,survivor count,"dose: 200.0 mg/kg/injection, schedule: Q01DX001 (ip), vehicle: carboxymethylcellulose (CMC)",0 of 4
same,survivor count,"dose: 400.0 mg/kg/injection, schedule: Q01DX001 (ip), vehicle: carboxymethylcellulose (CMC)",1 of 4
CCc1ccc2[nH]c(C(=O)O)cc2c1,survivor count,"dose: 200.0 mg/kg/injection, schedule: Q01DX001 (ip), vehicle: saline",3 of 6
CCCCOC(=O)c1cccnc1,survivor count,[5],6 of 6
CCCCN(C=S)CCCC,survivor count,[5],0 of 6
same,survivor count,"dose: 400.0 mg/kg/injection, schedule: Q04DX003 (ip), vehicle: saline with Tween-80",0 of 6
N#CC(Cl)(Cl)CCl,survivor count,[6],0 of 6
same,survivor count,[7],0 of 6
COC(=O)C(CCC1CCCCN1)(c1ccccc1)c1ccccc1 (stereo not drawn),T/C,"dose: 50.0 mg/kg/injection, schedule: Q01DX009 (ip), vehicle: saline",148 % of control (2×)
same,T/C,"dose: 75.0 mg/kg/injection, schedule: Q01DX009 (ip), vehicle: saline","125 [4 of 6 alive], 129, 134 % of control"
same,survivor count,"dose: 87.0 mg/kg/injection, schedule: Q01DX009 (ip), vehicle: saline",5 of 6
same,survivor count,"dose: 110.0 mg/kg/injection, schedule: Q01DX009 (ip), vehicle: saline",3 of 6
O=c1[nH]cc(C(F)(F)F)c(=O)[nH]1,survivor count,"dose: 4.0 mg/kg/injection, schedule: Q01DX Z (oral), vehicle: methylcellulose (MC)",2 of 6
same,survivor count,"dose: 8.0 mg/kg/injection, schedule: Q01DX Z (oral), vehicle: methylcellulose (MC)",2 of 6
same,survivor count,"dose: 16.0 mg/kg/injection, schedule: Q01DX Z (oral), vehicle: methylcellulose (MC)",0 of 6
same,T/C,"dose: 300.0 mg/kg/injection, schedule: Q01DX Z (ip), vehicle: saline",129 % of control
Cc1ccc(NC(=O)N(CCCl)N=O)c(C)c1,T/C,"dose: 12.5 mg/kg/injection, schedule: Q01DX001 (ip), vehicle: other",136 % of control
same,T/C,"dose: 36.0 mg/kg/injection, schedule: Q01DX009 (ip), vehicle: other",126 % of control [5 of 6 alive]
same,survivor count,"dose: 100.0 mg/kg/injection, schedule: Q01DX001 (ip), vehicle: other",6 of 6
same,survivor count,"dose: 200.0 mg/kg/injection, schedule: Q01DX001 (ip), vehicle: other",1 of 6
same,survivor count,"dose: 400.0 mg/kg/injection, schedule: Q01DX001 (ip), vehicle: other",0 of 6
CCCCN1C(=O)C(=O)N(c2ccccc2C(F)(F)F)C1=O,survivor count,"dose: 200.0 mg/kg/injection, schedule: Q01DX009 (ip), vehicle: Klucel (hydroxypropylcellulose) (HPC)",3 of 3
same,survivor count,"dose: 400.0 mg/kg/injection, schedule: Q01DX009 (ip), vehicle: Klucel (hydroxypropylcellulose) (HPC)",3 of 3
C=CC[N+]12CCCC1C(=C)CC2 (stereo not drawn),survivor count,"dose: 100.0 mg/kg/injection, schedule: Q01DX009 (ip), vehicle: saline",0 of 3
same,survivor count,"dose: 200.0 mg/kg/injection, schedule: Q01DX009 (ip), vehicle: saline",0 of 3
CC(=O)[O][Pb]([c]1ccccc1)([c]1ccccc1)[c]1ccccc1,survivor count,"dose: 0.25 mg/kg/injection, schedule: Q01DX015 (ip), vehicle: carboxymethylcellulose (CMC)",6 of 6
same,survivor count,"dose: 8.0 mg/kg/injection, schedule: Q01DX015 (ip), vehicle: carboxymethylcellulose (CMC)",3 of 6
C[P+]1(CCc2ccccc2)CC(Br)C(Br)C1 (stereo not drawn),survivor count,"dose: 100.0 mg/kg/injection, schedule: Q04DX003 (ip), vehicle: Klucel (hydroxypropylcellulose) (HPC)",3 of 6
same,survivor count,"dose: 200.0 mg/kg/injection, schedule: Q04DX003 (ip), vehicle: Klucel (hydroxypropylcellulose) (HPC)",0 of 6
same,survivor count,"dose: 400.0 mg/kg/injection, schedule: Q04DX003 (ip), vehicle: Klucel (hydroxypropylcellulose) (HPC)",0 of 6
CS(=O)(=O)OCCN1CCC2(CC1)SSC1(CCN(CCOS(C)(=O)=O)CC1)S2,survivor count,"dose: 25.0 mg/kg/injection, schedule: Q01DX009 (ip), vehicle: saline",0 of 6
same,survivor count,"dose: 50.0 mg/kg/injection, schedule: Q04DX003 (ip), vehicle: saline",0 of 6
same,survivor count,"dose: 100.0 mg/kg/injection, schedule: Q04DX003 (ip), vehicle: saline",0 of 6
same,survivor count,[6],0 of 6 and 1 of 6
same,survivor count,[7],0 of 6
O=C1OCC2C1C1CCC2C1(Cl)Cl (stereo not drawn),survivor count,[8],2 of 6
same,survivor count,[9],0 of 6
O=S(=O)(O)SCNCNCCSCc1ccccc1,survivor count,[1],0 of 3
same,survivor count,[2],0 of 3
same,survivor count,[3],0 of 3
C[CH2][Ge]([CH2]C)[CH2]C.C[CH2][Ge]([CH2]C)[CH2]C,survivor count,"dose: 400.0 mg/kg/injection, schedule: Q01DX001 (ip), vehicle: saline with Tween-80",5 of 6
CN(N=O)C(=O)NC1C(CO)OC2OC(C)(C)OC21 (stereo not drawn),T/C,"dose: 200.0 mg/kg/injection, schedule: Q01DX009 (ip), vehicle: saline sonified",129 % of control
NC(N)=N/N=C\c1ccc2c(c1)OCO2,survivor count,"dose: 120.0 mg/kg/injection, schedule: Q01DX Z (ip), vehicle: saline",0 of 6
same,survivor count,"dose: 240.0 mg/kg/injection, schedule: Q01DX Z (oral), vehicle: saline",0 of 6
CNC(=O)Oc1ccc2ccccc2c1[N+](=O)[O-],survivor count,[8],1 of 6
same,survivor count,[9],0 of 6
C(=C\c1ccccc1)/C[n+]1cccc2ccccc21,survivor count,[10],0 of 6
same,survivor count,[11],0 of 6
Nc1ncn(C2CC(OC(=O)c3ccc(Cl)cc3)C(COC(=O)c3ccc(Cl)cc3)O2)c(=O)n1 (stereo not drawn),T/C,"dose: 200.0 mg/kg/injection, schedule: Q01DX005 (ip), vehicle: saline",144 % of control
O=[N+]([O-])c1ccc2c(c1)[As](=O)(O)c1cc([N+](=O)[O-])ccc1-2,survivor count,[10],2 of 6
same,survivor count,[11],0 of 6
CC(=O)OC1CC2C(=O)CC1(C)C2(C)C (stereo not drawn),survivor count,[10],1 of 6
same,survivor count,[11],0 of 6
